The results in this text go back to article PMC12040169 (PLOS Biology, 2025).

Each structure is given as a SMILES string. Some of the results follow.

In the assay the test system is T1, CTL2-GFP (C. trachomatis L2/434/Bu, GFP-expressing).
T1 construct: L2/434/Bu, GFP-expressing
The arrangement: species or system HeLa; Intracellular C. trachomatis growth in HeLa cells, bulk GFP fluorescence relative to DMSO. The settings on record: bulk GFP, single well; 28.5 h, 10 µM; inhibitor.
On to `O=S(=O)(N1CCOCC1)N1CCN(CC(O)COc2ccc(-c3ccccc3)cc2)CC1` (centres unmarked) [CBK269301], for which the “% of control remaining” value is reported as 140.817%.

In the case of `CC(C)(C)OC(=O)N1CCN(S(=O)(=O)c2ccc(Br)cc2)CC1` [CBK143623], the “% of control remaining” value amounted to 146.192%.

Consider `CC(C)(C)OC(=O)C1(NC(=O)Cc2cn3ccccc3n2)CCCC1` [CBK305500], for which the “% of control remaining” value turned out to be 126.551%.

Consider `COc1ccccc1-c1cccc(C2CCCN(C(=O)Cc3c[nH]c4ccccc34)C2)n1` (centres unmarked) [CBK286143], for which the “% of control remaining” value was found to be 102.449%.

As for `CCOc1ccc(C(=O)NC(=S)Nc2cccc(C(=O)O)c2C)cc1Br` [CBK265100], the “% of control remaining” value stood at 119.579%.

For `CCN(CC)CCN1CCN(c2cncc(-c3cccs3)n2)CC1` [CBK065703], the “% of control remaining” value is recorded as 141.692%.

As to `Cc1cc(S(=O)(=O)N2CCN(CCO)C(C)C2)sc1Cl` (centres unmarked) [CBK304074], the “% of control remaining” value is 115.932%.

Regarding `CC(C)n1c(=O)n(CC(=O)NCCc2ccccc2)c2cccnc21` [CBK283701], the “% of control remaining” value was 135.686%.

For the compound `Nn1c(SCc2ccc(C(=O)O)cc2)nnc1-c1ccccn1` [CBK267553], the “% of control remaining” value was 110.464%.

Turning to `O=C(O)c1cccc(OCCNS(=O)(=O)c2ccc(N3CCCC3=O)cc2)c1` [CBK299779], the “% of control remaining” value amounted to 136.073%.

For `CC(=O)Nc1cccc(Oc2nccnc2-c2ccc(F)cc2)c1` [CBK106900], the “% of control remaining” value was determined as 123.324%.

With `CCC(=O)N1CCCC1c1nc(C)c2c(n1)N(CCc1ccccc1OC)CCC2` (centres unmarked) [CBK286246], the “% of control remaining” value is given as 128.34%.

As for `O=C1CCC(=O)N1CCOc1nccnc1OC1CCN(CCc2ccccn2)CC1` [CBK084360], the “% of control remaining” value was 93.1505%.

In the case of `Cn1nnc2cc(NC(=O)NCc3csc(N4CCOCC4)n3)ccc21` [CBK307492], the “% of control remaining” value is listed as 135.766%.

As for `CSc1nnc(-c2cccs2)n1C` [CBK067702], the “% of control remaining” value was found to be 121.972%.

As to `CS(=O)(=O)Nc1cc2ccccc2c(-c2cccnc2)n1` [CBK085747], the “% of control remaining” value turned out to be 112.999%.

`O=C(O)c1ccc(S(=O)(=O)c2ccc(C(=O)O)c(C(=O)O)c2)cc1C(=O)O` [CBK022872]: the “% of control remaining” value amounted to 103.743%.

Consider `COc1ccc(C2=NNC(=O)C(c3ccc(OC)cc3)C2)cc1` (centres unmarked) [CBK287908], for which the “% of control remaining” value worked out at 125.271%.

With `Nc1cc(-c2ccccc2)nn1-c1ccc(C(=O)O)cc1` [CBK286565], the “% of control remaining” value is on record as 130.457%.

For the compound `O=C(COc1ccc(S(=O)(=O)N2CCOCC2)cc1)NCc1ccco1` [CBK268377], the “% of control remaining” value was 105.872%.

With `COCCNC(=O)c1cc(-c2cccc(C(=O)N(C)C)c2)cnc1N1CCOCC1` [CBK076464], the “% of control remaining” value came to 107.562%.

On to `CCn1cc(S(=O)(=O)Nc2cc(C)on2)cn1` [CBK270302], for which the “% of control remaining” value turned out to be 128.359%.

On to `N/C(=N\OC(=O)CCCc1ccccc1)c1ccc(Cl)cc1` [CBK264454], for which the “% of control remaining” value is recorded as 104.492%.

As to `O=C(c1cc[nH]n1)N1CCc2nc(-c3cccc(F)c3)sc2C1` [CBK281915], the “% of control remaining” value was found to be 145.194%.

Turning to `COc1ccc(-n2ncc3c2CCCN(C(=O)C2CCCC2)C3)cc1` [CBK284501], the “% of control remaining” value was 90.4549%.

For `O=C(O)c1ccc(NC(=O)c2cn(-c3ccccc3)nc2-c2cc3ccccc3oc2=O)cc1` [CBK266432], the “% of control remaining” value is reported as 148.882%.

For `CS(=O)(=O)N(Cc1ccc(Cl)cc1)c1ccc(C(=O)N2CCC(C(N)=O)CC2)cc1` [CBK265327], the “% of control remaining” value worked out at 113.56%.

Consider `COc1ccccc1OCCOc1cccc(/C=N/n2cnnc2)c1` [CBK263288], for which the “% of control remaining” value is listed as 115.292%.

`Cn1ccnc1SCC(=O)Nc1ccc(I)cc1` [CBK057541]: the “% of control remaining” value came to 142.223%.

Consider `Cc1nc(C2CCCC2)cc([C@H]2CN3CC[C@H]2C[C@@H]3CNC(=O)c2ccco2)n1` [CBK289120], for which the “% of control remaining” value came to 125.939%.

Take `CC(=O)Nc1ccc(C(=O)CSc2nc(-c3ccccc3)cs2)cc1` [CBK268038]: the “% of control remaining” value was 129.976%.

Regarding `O=C(CSCc1nc(O)c2c3c(sc2n1)CCCC3)NC1CCCCC1` [CBK265684], the “% of control remaining” value was determined as 100%.

`COc1ccc(-n2cnc3ccccc3c2=O)cc1` [CBK288145]: the “% of control remaining” value was 144.193%.

Turning to `OCC1CCCN1c1cncc(-c2ccc3ccccc3c2)n1` (centres unmarked) [CBK037197], the “% of control remaining” value is listed as 102.185%.

Take `CCn1cc(C(=O)N2CCCCC2c2nc3ccccc3[nH]2)c(C)n1` (centres unmarked) [CBK283778]: the “% of control remaining” value was determined as 136.952%.

In the case of `COc1cc(CN2CCN(C(=O)c3ccccc3)CC2)cc(OC)c1O` [CBK263462], the “% of control remaining” value was determined as 90.0528%.

For the compound `Cc1cc(-c2cc(=O)n(Cc3ccccc3F)nc2C2CC2)on1` [CBK284366], the “% of control remaining” value worked out at 98.0603%.

On to `O=C(NC[C@H]1CC[C@H](c2cc(C(=O)N3CCOCC3)c3ccccc3n2)CC1)C1CCCC1` [CBK285979], for which the “% of control remaining” value stood at 131.564%.

Consider `Cc1nc(SCC(=O)N2CCC(C)CC2)c2c3c(sc2n1)CCC3` [CBK265944], for which the “% of control remaining” value amounted to 134.088%.

`COc1cc(OC)cc(C(=O)N2CCC3(CC2)CC(=O)c2cc(C)c(C)cc2O3)c1` [CBK164201]: the “% of control remaining” value came to 147.402%.

Turning to `Cc1cc(-c2cc3nc(C)c(C)c(O)n3n2)c(C)o1` [CBK284500], the “% of control remaining” value amounted to 127.44%.

On to `Cc1ccc(-c2ncc(OCc3ccccc3)nc2N)c(C)c1` [CBK145129], for which the “% of control remaining” value amounted to 101.266%.

`COC(=O)CCc1ccc(S(=O)(=O)N2CCN(Cc3csc(-c4ccccc4)n3)CC2)cc1` [CBK062812]: the “% of control remaining” value is on record as 106.047%.

Consider `CC(C)C(=O)NCCN1CCOCC1` [CBK034322], for which the “% of control remaining” value worked out at 112.479%.

For the compound `CCNS(=O)(=O)c1ccc(CCC(=O)Nc2ccc3c(c2)OCCO3)cc1` [CBK268255], the “% of control remaining” value amounted to 100.058%.

Consider `OC(COc1cccc2c1CCCC2)CN1CCC(Cc2ccccc2)CC1` (centres unmarked) [CBK003829], for which the “% of control remaining” value stood at 149.825%.

`CC1CCN(S(=O)(=O)c2cc(C(=O)OCC(=O)c3ccccc3)c(Cl)cc2Cl)CC1` [CBK264470]: the “% of control remaining” value is 114.657%.

For the compound `O=C(NCCN1CCCCC1)C1CC(=O)N(c2ccccc2F)C1` (centres unmarked) [CBK305148], the “% of control remaining” value amounted to 127.365%.

For the compound `CS(=O)(=O)N(CC(=O)O)c1cccc(C(F)(F)F)c1` [CBK286988], the “% of control remaining” value was 139.571%.

`COc1ccc(Br)cc1S(=O)(=O)Nc1c(C(=O)O)sc2ncccc12` [CBK049978]: the “% of control remaining” value is 109.526%.
